Measurements as given in patent US20110280866A1.
These are yes or no findings as the source states them, for the method shown. Some binding calls cover weakened binding; strength is not graded here. Sequences can lack the tags named with a protein.

Target: T1, fusion protein between GST and CD-160 (Homo sapiens (Human)) (UniProt O95971)
T1 sequence: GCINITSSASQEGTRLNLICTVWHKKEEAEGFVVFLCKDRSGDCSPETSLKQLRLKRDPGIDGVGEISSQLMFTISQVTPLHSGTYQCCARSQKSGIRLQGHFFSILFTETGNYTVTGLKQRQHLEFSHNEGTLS
Assay: indirect immunofluorescence staining and flow cytometry, screening of hybridoma supernatants

B1: mouse CD160 antibody (anti-CD160 antibody having anti-angiogenesis properties) (antibody, V domains shown)
VH: QVHLQQSGAELARPGASVKLSCKASGYTFTDYWMQWIKQRPGQGLEWIGSIYPGDDDARYTQKFRGKATLTADKSSSTAYMQLSSLASEDSAVYYCARRGIAAVVGGFDYWGQGTTLTVSS
VL: DIVLTQSPATLSVTPGNSVSLSCRASQSISNHLHWYQQKSHESPRLLIKYASQSISGIPSRFSGSGSGTDFTLSINSVETEDFGMYFCQQSNSWPLTFGAGTKLELKR
  binding: binds
